Results from PMC6098049.
Construct, isoform or probe ends are uncertain for at least one entry.

Tests used:
[1] = system: bZIP73Jap (Oryza sativa subsp. japonica cv. Nipponbare); test: EMSA; settings: Chemiluminescent EMSA Kit (Beyotime), standard protocol; pH and temperature not stated; recombinant protein; protein details: GST (pGEX4T-3)
bZIP73Jap + bZIP71 = test: EMSA; settings: bZIP71 promotes the bZIP73Jap interaction; Chemiluminescent EMSA Kit (Beyotime), standard protocol; pH and temperature not stated; recombinant protein; protein details: GST (pGEX4T-3),GST (pGEX4T-3)

Sequence | binding result [1] | binding result (bZIP73Jap + bZIP71)
CGCGTCGCCCTGCCTCCCCCCGGAGCGCACCACGTGGGCACCCAACCCCCTCTCCCAGCCCAAAGCAAAT (double strand) [OsNCED3 G-box probe] | binds | binds
TCCGGCGAATCCACCACGTGGTCTCCTCTCCCAACTTCACCTCCTCCTCTTCCCCCCTCCTCCCTCTCCT (double strand) [OsNCED5 G-box probe] | binds | binds
